PMC4777216
Results are given in words; binding and its absence hold for the method and conditions named. Binding seen in cells or lysates may run through a third protein. Some entries that bind do so weakly or less than the wild type. For some of these results: Sequences can lack the tags named with a protein.

Amino acid sequences for entries named in this document (tags omitted). Residues count along the entry.
UniProt Q01973, residues 30-937: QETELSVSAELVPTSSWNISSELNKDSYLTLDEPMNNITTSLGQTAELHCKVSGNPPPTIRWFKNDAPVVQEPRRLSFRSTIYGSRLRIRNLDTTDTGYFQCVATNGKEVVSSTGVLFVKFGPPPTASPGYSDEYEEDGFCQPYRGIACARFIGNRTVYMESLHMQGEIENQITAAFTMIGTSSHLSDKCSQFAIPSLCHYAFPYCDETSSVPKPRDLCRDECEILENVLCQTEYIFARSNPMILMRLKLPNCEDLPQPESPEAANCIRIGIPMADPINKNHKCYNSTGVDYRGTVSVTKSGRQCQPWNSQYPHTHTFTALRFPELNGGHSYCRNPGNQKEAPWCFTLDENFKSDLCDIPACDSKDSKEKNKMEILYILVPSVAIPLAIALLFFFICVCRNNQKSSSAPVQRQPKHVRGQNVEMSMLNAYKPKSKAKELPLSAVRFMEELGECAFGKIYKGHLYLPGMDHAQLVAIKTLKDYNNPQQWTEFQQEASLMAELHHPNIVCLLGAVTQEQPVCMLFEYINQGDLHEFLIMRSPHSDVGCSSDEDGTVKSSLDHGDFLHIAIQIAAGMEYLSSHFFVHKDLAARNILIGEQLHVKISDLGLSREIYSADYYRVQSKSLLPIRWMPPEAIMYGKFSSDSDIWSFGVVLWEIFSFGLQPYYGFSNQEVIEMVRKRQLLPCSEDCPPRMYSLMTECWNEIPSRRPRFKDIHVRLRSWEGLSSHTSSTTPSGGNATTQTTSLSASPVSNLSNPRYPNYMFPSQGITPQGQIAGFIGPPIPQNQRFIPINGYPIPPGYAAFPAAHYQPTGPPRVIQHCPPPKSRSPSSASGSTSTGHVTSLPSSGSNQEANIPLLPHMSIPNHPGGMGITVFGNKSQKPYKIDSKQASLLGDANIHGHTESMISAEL
UniProt Q03135: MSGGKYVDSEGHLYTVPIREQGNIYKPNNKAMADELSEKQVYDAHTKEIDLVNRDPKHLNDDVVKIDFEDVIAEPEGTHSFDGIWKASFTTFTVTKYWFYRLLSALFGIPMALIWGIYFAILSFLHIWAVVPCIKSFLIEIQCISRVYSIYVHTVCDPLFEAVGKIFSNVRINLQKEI

Assays:
[1] = biological target: ROR1 wild type expressed in COS-7 (pCMVpuro-ROR1-WT) (UniProt Q01973); assay: co-IP; COS-7 co-transfected with ROR1 and cavin-1 or CAV1 constructs, harvested 24 h later in NP-40 lysis buffer (20 mM Tris-HCl pH 8.0, 137 mM NaCl, 2 mM EDTA, 1% NP-40, 10% glycerol, 1 mM Na3VO4); IP–WB
GST-tagged CAV1 = GST-tagged CAV1 (UniProt Q03135); assay: pull-down; glutathione beads coated with recombinant GST-tagged protein, mixed with NCI-H1975 extract in octylglucoside buffer (60 mM octylglucoside, 150 mM NaCl, 50 mM EDTA); Western blot; only the target purified
[2] = biological target: T1, GST-tagged cavin-1-MAD (233–321) (UniProt Q6NZI2); assay: as above
T1 sequence: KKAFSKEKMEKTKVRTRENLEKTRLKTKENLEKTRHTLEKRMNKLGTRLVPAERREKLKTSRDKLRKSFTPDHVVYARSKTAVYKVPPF

GST-tagged cavin-1-WT = biological target: T2, GST-tagged cavin-1-WT (UniProt Q6NZI2); assay: as above
T2 sequence: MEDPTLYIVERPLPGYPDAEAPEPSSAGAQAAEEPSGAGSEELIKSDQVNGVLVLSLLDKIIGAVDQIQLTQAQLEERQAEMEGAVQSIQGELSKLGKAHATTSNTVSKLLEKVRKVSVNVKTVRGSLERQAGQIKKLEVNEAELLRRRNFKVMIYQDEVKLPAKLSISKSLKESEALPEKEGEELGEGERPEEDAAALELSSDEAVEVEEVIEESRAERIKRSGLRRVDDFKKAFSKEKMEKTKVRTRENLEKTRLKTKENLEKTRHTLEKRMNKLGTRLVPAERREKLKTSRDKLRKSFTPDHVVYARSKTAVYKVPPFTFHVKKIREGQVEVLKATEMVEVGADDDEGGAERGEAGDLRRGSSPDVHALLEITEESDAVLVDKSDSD

[3] = biological target: T3, cavin-1 (also known as PTRF), endogenous (human (endogenous in NCI-H1975, SK-LU-1, NCI-H441, PC-9)) (UniProt Q6NZI2); assay: co-IP; endogenous proteins; whole-cell lysates of NSCLC cell lines in octylglucoside buffer (60 mM octylglucoside, 150 mM NaCl, 50 mM EDTA); IP with anti-ROR1, anti-cavin-1 or non-specific IgG, Western blot; for cavin-1 with CAV1 cells harvested 24 h after siROR1 or siControl
T3 sequence: T2 sequence

[4] = biological target: receptor tyrosine kinase-like orphan receptor 1 (ROR1), endogenous (human (endogenous in NCI-H1975, SK-LU-1, NCI-H441, PC-9)) (UniProt Q01973); assay: as above

Row | Substance | binding [1] | binding (GST-tagged CAV1) | binding [2] | binding (GST-tagged cavin-1-WT) | binding [3] | binding [4]
1 | CAV1-WT-myc expressed in COS-7 (from UniProt Q03135 1-178) | binds | – | – | – | – | –
2 | receptor tyrosine kinase-like orphan receptor 1 (ROR1), endogenous (from UniProt Q01973 30-937) | – | binds | binds | binds | – | –
3 | caveolin-1 (CAV1), endogenous (from UniProt Q03135 1-178) | – | – | – | binds | binds | binds
